Source: PubChem BioAssay AID493014 (National Center for Advancing Translational Sciences (NCATS), 2011)
This is one part of the list. These are further read-outs of the screen, such as a control signal, another cell line or another target. No call is given for them. The list favours compounds with an active or inconclusive main result. Words in brackets tell the shape of the fitted curve; partial curves, single points and poor fits give uncertain potencies.

Assay: qHTS Assay to Find Inhibitors of Chronic Active B-Cell Receptor Signaling
Conditions: ABC-DLBCL IkBa-CBG/CBR reporter, luminescence ratio (green luciferase fused to IkBa over red control in TMD8 lymphoma cells), 4 h
Summary of the method: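 Compounds up to 46 uM were incubated four hours with TMD8 cells whose green CBG68 luciferase is fused to IkappaBalpha; red CBR luminescence normalised the signal, and concentration-effect curves were fitted to fusion, red and ratio data.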

[1] = measured here: CBR red luminescence, cell number
[2] = measured here: IkBa-CBG green luminescence

COc1ccc(C(=O)Nc2ccc3cn[nH]c3c2)c(OC)c1
AC50 [1]: 11.2 µM [falling, partial curve, poor fit]

O=C(N/N=C/c1ccccc1C(F)(F)F)c1ccc(O)cc1
AC50 [1]: 7.94 µM [falling, partial curve]

CCCCOc1ccc(C2C(C(=O)c3ccc(C)o3)=C(O)C(=O)N2CC2CCCO2)cc1 (stereo not drawn)
AC50 [1]: 0.651 µM [rising, partial curve, poor fit]

CCc1ccc2[nH]c(O)c(N=NC3=NC(=O)CS3)c2c1
AC50 [1]: 5.62 µM [falling, single point]

COc1ccc(CN(CC(=O)NCC2CCCO2)C(=O)CCC(=O)Nc2cc(C)on2)cc1 (stereo not drawn)
AC50 [1]: 9.2 µM [rising, partial curve, poor fit]

CCC1(C(=O)c2ccccc2)C(c2ccc([N+](=O)[O-])cc2)C1(C(=O)OC)C(=O)OC (stereo not drawn)
AC50 [1]: 23.1 µM [falling, partial curve, poor fit]

Cc1ccccc1/C=N/NC(=O)CSc1nc2ccccc2o1
AC50 [1]: 0.92 µM [rising, full curve, poor fit]

Cn1nccc1/C=C(/C#N)S(=O)(=O)c1ccccc1
AC50 [1]: 29.1 µM [falling, single point]

O=C(c1cccc([N+](=O)[O-])c1)c1cc2ccccc2o1
AC50 [1]: 4.11 µM [rising, partial curve, poor fit]

Fc1ccc2[nH]c3c(N4CCSCC4)ncnc3c2c1
AC50 [1]: 0.82 µM [falling, partial curve, poor fit]

O=C(Nc1cccc([N+](=O)[O-])c1)c1cc2ccccc2cc1O
AC50 [1]: 7.94 µM [falling, partial curve, poor fit]

CNC[C@H](CC1CCCCC1)NC[C@H](CO)NCCc1cccc(C(F)(F)F)c1
AC50 [1]: 25.1 µM [falling, single point]

CCOC(=O)C(NC(=O)c1ccc(F)cc1)(Nc1sc2c(c1C(N)=O)CCC2)C(F)(F)F (stereo not drawn)
AC50 [1]: 14.6 µM [rising, partial curve, poor fit]

Cc1ccc(NC(=O)c2cc(C)no2)cc1
AC50 [1]: 3.55 µM [rising, single point]

CC(C)(C)c1ccc(C(=O)NCCNC(=O)c2ccco2)cc1
AC50 [1]: 7.08 µM [rising, partial curve, poor fit]

O=C(OCc1ccccc1Cl)c1cccnc1Cl
AC50 [1]: 6.51 µM [rising, full curve]

CSc1ccc(CNc2ccc(C)c(C)c2)cc1
AC50 [1]: 17.8 µM [rising, partial curve, poor fit]

Clc1ccc2nc(-c3ccc(Cl)nc3)[nH]c2c1
AC50 [1]: 11.2 µM [falling, single point]

O=C(c1cnn(-c2ccccc2)c1)c1cc(Br)ccc1O
AC50 [1]: 4.61 µM [rising, full curve, poor fit]

O=C(Nc1ccccc1O)C(c1ccccc1)c1ccccc1
AC50 [1]: 35.5 µM [falling, single point]

Cc1sc2ncnc(N3CCC(C(=O)NNC(=O)COc4cccc(C(F)(F)F)c4)CC3)c2c1C
AC50 [1]: 32.6 µM [falling, partial curve, poor fit]

CCSc1nsc(SCC)c1C(N)=O
AC50 [1]: 12.6 µM [rising, single point]

Cc1cc(C)nc(N(C#N)Cc2ccccc2Cl)n1
AC50 [2]: 28.2 µM [falling, partial curve, poor fit]

COC(=O)C1=C(C)N(Cc2ccccc2)C(=NCC(C)C)N[C@H]1c1cccc(C(F)(F)F)c1
AC50 [1]: 16.4 µM [falling, single point]

CCN1C(=O)C(CC(=O)Nc2ccc(F)cc2)N(Cc2cccs2)C1=S (stereo not drawn)
AC50 [1]: 35.5 µM [falling, single point]
AC50 [2]: 14.1 µM [rising, single point]

Oc1cccnc1SCc1ccccc1
AC50 [1]: 3.26 µM [rising, partial curve, poor fit]

CC(C)(C)SCCNC(=O)/C=C/c1ccccc1
AC50 [1]: 35.5 µM [falling, single point]

O=c1c2cc(Br)ccc2[nH]c(=S)n1Cc1ccccc1
AC50 [1]: 3.98 µM [falling, full curve, poor fit]

Cc1ccc(SCc2cn3cccnc3n2)cc1
AC50 [1]: 5.62 µM [falling, single point]

COc1ccccc1/C=N/NC1=NCCCCC1
AC50 [1]: 31.6 µM [falling, partial curve, poor fit]

COc1cccc(C(=O)/C=C/Nc2ccc(S(=O)(=O)Nc3nc(C)cc(C)n3)cc2)c1
AC50 [1]: 14.6 µM [rising, partial curve]

O=C(NCCc1ccc(Cl)cc1)C1CCN(Cc2cc3ccccc3n2Cc2ccccc2)CC1
AC50 [1]: 1.26 µM [falling, full curve, poor fit]
